According to ChEMBL document CHEMBL5724796, “Tm Shift (DSF) assay results for EUbOPEN Chemogenomics Library” (2024):
Values joined by “and” are separate entries in the source; they are usually repeats but may differ in a detail not shown here. Equal entries are not always repeated. For part of these data: What follows is the remainder of the data, with few or none of the highest values. For part of these data: Most of the lowest values are listed elsewhere, so they are rarer here than in the full data.

Sequences of proteins named here, by UniProt entry; tags and fusion partners are left off. A change or cut given only in a name is not applied to a line headed by its entry.
UniProt P00519, whole entry: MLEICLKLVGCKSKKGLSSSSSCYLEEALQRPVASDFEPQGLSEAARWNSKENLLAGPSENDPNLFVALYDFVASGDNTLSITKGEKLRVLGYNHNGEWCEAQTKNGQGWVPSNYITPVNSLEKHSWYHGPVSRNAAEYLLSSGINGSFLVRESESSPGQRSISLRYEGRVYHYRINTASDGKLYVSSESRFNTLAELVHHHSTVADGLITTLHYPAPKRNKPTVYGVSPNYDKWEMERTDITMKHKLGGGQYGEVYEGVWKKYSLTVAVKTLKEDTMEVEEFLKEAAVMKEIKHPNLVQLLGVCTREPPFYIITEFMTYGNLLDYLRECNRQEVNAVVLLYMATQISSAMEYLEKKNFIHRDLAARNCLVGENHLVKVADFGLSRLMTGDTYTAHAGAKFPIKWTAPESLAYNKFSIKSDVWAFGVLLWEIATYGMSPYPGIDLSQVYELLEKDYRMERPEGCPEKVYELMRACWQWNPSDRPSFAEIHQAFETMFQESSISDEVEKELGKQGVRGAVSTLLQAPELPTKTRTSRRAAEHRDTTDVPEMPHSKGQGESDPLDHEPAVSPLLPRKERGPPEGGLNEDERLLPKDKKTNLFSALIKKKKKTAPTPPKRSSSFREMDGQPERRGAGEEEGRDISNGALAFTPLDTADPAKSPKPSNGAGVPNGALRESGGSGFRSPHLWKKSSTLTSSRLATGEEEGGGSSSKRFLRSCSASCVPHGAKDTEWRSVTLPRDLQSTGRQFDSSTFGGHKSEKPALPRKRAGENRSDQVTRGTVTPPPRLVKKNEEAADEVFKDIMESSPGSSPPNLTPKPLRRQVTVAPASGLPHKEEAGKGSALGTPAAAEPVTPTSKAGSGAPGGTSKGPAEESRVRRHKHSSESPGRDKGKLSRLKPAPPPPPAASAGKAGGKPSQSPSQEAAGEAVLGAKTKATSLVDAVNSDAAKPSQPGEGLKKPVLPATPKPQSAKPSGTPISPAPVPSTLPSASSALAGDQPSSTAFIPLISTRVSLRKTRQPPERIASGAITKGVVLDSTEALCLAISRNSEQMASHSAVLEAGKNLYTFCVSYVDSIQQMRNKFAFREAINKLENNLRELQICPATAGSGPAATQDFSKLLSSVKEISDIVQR
UniProt P48730: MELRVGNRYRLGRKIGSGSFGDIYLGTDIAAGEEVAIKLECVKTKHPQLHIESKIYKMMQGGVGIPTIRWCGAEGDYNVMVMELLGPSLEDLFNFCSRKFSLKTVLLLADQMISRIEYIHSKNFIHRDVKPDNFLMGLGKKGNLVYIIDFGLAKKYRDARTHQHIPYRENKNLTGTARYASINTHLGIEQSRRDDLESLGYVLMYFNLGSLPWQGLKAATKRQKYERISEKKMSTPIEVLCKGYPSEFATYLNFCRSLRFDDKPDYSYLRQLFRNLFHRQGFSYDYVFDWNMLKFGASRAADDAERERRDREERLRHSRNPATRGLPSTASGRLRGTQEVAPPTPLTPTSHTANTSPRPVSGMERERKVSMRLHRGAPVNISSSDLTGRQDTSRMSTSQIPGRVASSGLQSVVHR
UniProt P49841: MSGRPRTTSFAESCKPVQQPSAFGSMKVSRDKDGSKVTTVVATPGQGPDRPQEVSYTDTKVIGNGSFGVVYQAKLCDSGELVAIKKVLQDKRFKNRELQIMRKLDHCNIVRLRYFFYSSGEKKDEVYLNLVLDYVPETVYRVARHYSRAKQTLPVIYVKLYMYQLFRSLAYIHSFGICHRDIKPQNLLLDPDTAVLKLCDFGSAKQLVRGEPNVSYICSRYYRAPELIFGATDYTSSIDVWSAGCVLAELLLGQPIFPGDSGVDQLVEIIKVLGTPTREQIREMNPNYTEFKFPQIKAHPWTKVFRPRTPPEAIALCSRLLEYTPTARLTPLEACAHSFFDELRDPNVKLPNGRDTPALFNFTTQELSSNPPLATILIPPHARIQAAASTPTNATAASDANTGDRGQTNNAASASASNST
UniProt P28482, whole entry: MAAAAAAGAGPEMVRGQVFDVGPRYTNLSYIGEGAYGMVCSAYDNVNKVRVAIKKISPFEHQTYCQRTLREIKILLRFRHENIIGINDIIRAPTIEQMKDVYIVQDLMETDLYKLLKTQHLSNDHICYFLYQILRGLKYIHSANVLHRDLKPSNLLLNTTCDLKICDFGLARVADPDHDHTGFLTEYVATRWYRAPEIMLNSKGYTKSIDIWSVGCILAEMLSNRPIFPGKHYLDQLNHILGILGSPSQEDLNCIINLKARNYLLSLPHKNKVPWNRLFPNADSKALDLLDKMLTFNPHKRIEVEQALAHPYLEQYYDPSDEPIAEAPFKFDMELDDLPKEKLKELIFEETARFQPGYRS

What was measured:
Conditions in all cases: Compound concentration 20.0 uM
[1] = biological target: Tyrosine-protein kinase ABL1 (Homo sapiens) (UniProt P00519)
[2] = biological target: Bromodomain-containing protein 4 (Homo sapiens) (UniProt O60885)
[3] = biological target: Cyclin-dependent kinase 2 (Homo sapiens) (UniProt P24941)
[4] = biological target: Casein kinase I isoform delta (Homo sapiens) (UniProt P48730)
[5] = biological target: Glycogen synthase kinase-3 beta (Homo sapiens) (UniProt P49841)
[6] = biological target: Mitogen-activated protein kinase 1 (Homo sapiens) (UniProt P28482)
[7] = biological target: T1, Aurora kinase A (Homo sapiens) (UniProt O14965)
T1 sequence (whole entry): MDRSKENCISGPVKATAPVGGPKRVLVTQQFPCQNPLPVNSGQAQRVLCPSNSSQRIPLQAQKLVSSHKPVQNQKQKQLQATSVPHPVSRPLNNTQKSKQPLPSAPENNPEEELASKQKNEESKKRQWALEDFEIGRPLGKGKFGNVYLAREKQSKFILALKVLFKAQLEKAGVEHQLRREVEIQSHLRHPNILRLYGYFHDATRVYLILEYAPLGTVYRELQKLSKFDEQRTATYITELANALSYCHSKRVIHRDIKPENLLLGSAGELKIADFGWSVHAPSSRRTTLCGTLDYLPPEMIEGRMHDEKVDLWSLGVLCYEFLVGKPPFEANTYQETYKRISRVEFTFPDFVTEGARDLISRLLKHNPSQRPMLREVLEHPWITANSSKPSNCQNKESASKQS

[8] = biological target: T2, Transcription intermediary factor 1-alpha (Homo sapiens) (UniProt O15164)
T2 sequence (whole entry): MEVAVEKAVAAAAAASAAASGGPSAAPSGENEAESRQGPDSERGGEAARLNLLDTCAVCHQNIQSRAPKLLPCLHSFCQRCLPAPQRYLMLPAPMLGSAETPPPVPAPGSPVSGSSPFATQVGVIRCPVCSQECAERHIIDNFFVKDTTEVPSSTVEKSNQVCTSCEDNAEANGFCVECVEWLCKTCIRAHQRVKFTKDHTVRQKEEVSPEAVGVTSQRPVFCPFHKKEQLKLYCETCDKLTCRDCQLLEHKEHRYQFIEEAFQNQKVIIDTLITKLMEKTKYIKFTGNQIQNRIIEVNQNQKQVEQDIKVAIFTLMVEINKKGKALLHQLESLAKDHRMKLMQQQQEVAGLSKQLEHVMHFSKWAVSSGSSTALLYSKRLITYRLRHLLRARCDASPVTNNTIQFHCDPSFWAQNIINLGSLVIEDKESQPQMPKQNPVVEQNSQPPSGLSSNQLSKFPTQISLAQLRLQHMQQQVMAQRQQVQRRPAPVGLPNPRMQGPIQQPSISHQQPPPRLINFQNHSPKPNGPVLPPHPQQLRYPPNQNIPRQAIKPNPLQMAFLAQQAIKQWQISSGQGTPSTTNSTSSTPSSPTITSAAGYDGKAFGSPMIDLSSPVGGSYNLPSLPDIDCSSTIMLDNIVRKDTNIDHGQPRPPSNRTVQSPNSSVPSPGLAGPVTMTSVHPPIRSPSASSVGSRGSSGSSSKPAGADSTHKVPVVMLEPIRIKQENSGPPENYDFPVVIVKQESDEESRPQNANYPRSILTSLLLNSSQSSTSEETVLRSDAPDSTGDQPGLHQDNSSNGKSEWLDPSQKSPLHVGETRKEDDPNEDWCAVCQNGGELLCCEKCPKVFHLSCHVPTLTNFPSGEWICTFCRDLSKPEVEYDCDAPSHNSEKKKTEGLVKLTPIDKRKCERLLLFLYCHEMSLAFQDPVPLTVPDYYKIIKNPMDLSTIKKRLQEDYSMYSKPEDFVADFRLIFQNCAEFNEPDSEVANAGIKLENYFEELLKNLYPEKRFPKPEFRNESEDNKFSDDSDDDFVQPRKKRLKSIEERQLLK

Row | SMILES | ΔTm [1] | ΔTm [2] | ΔTm [3] | ΔTm [4] | ΔTm [5] | ΔTm [6] | ΔTm [7] | ΔTm [8]
1 | CNC(=O)c1ccc(-c2cc3cccc(-c4nn(C5CCOCC5)c5c4CN(C(C)=O)CC5)c3cn2)cn1 | -0.18 °C | 1.5 °C | 0.34 °C | 0.16 °C | -1.61 °C | -0.23 °C | -0.41 °C | -1.27 °C
2 | Cc1ccc(C(=O)NCCCCCC(=O)Nc2ccccc2N)cc1 | 0.46 °C and 0.22 °C | -1.41 °C and -1.71 °C | 0.28 °C and -0.1 °C | 0.2 °C and 0.24 °C | -0.11 °C and -0.27 °C | -0.44 °C and 0.15 °C | -0.42 °C and -0.94 °C | -0.6 °C and -0.7 °C
3 | COC[C@@H](NC(=O)N1CC(=O)Nc2cc(OC)cnc21)c1ccc(OC(F)(F)F)c(F)c1 | 0.59 °C | -3.58 °C | 0.3 °C | -0.92 °C | -1.86 °C | -0.07 °C | -1.99 °C | 0.66 °C
